Laboratory results taken from the supplement of paper PMC8426693.
The other results are listed elsewhere or left out.

How the values were obtained:
Test in all cases: NMR binding call after quantification (hit when 2 of 3 NMR criteria are met) (binary (1 = binding, 0 = not binding)); higher = binding
Details in all cases: RNA concentration 10 µM; fragment concentration 200 µM; 293 K
[1] = system: SARS-CoV-2 5_SL7 RNA
[2] = system: SARS-CoV-2 5_SL8 RNA
[3] = system: SARS-CoV-2 attenuator hairpin (att HP) RNA
[4] = system: SARS-CoV-2 frameshift pseudoknot (PK) RNA

Structure (SMILES) | NMR binding call [1] | NMR binding call [2] | NMR binding call [3] | NMR binding call [4]
O=C(NCc1ccco1)NC1CCCCC1 | 0 | 0 | 0 | 0
CCC(CC)C(=O)Nc1nccs1 | 0 | 0 | 0 | 0
CC(=O)Nc1ccc(C#N)cc1 | 0 | 0 | 0 | 0
COCc1nnc(N)s1 | 0 | 0 | 0 | 0
CCOC(=O)c1sc(-c2cnccn2)nc1C | 0 | 0 | 0 | 0
CC(=O)c1ccc(N2CCC(C(N)=O)CC2)cc1 | 0 | 0 | 0 | 0
CC1CN(S(C)(=O)=O)CCC1N (centres undefined) | 0 | 0 | 0 | 0
Cc1nnc(CN2CCC=C(F)C2)s1 | 0 | 0 | 0 | 0
NC(=O)c1ccc(OCc2ccccc2)cc1 | 0 | 0 | 0 | 0
CNC1CCCCC1S(C)(=O)=O (centres undefined) | 0 | 0 | 0 | 0
CC(=O)c1cccc(NC(=O)N2CCOCC2)c1 | 0 | 0 | 0 | 0
CN(CC(=O)O)C(=O)c1ccccn1 | 0 | 0 | 0 | 0
O=C(CCc1ccccc1)Nc1ccc(O)cc1 | 0 | 0 | 0 | 0
CN(C)c1ccc(C(=O)Nc2ccncc2)cc1 | 1 | 1 | – | –
CCC(=O)Nc1ccc(S(N)(=O)=O)cc1 | 0 | 0 | 0 | 0
CC(=O)Nc1cccnc1C(=O)O | 0 | 0 | 0 | 0
N#CCCN1CCOCC1 | 0 | 0 | 0 | 0
CCOC(=O)Nc1cccc(Cl)c1 | 0 | 0 | 0 | 0
Cc1ncc(CNc2cncc(F)c2)s1 | 0 | 0 | 0 | 0
COC(=O)c1sccc1NC(=O)C1CC1 | 0 | 0 | 0 | 0
CCOC(=O)Nc1sccc1C(N)=O | 0 | 0 | 0 | 0
NC(=O)c1c[nH]c(C2CC2)n1 | 0 | 0 | 0 | 0

Shown with tabs: part of the list above
Structure (SMILES)	NMR binding call [1]	NMR binding call [2]	NMR binding call [3]	NMR binding call [4]
CCOC(=O)Nc1cccc(Cl)c1	0	0	0	0
Cc1ncc(CNc2cncc(F)c2)s1	0	0	0	0

Continued.

Structure (SMILES) | NMR binding call [1] | NMR binding call [2] | NMR binding call [3] | NMR binding call [4]
CCc1nnc(NC(=O)C(F)(F)F)s1 | 0 | 0 | 0 | 0
Cc1n[nH]c(C)c1-c1ccccc1N | 0 | 0 | 0 | 0
CS(=O)(=O)Nc1ccc(-c2ccccc2)cc1 | 0 | 0 | 0 | 0
O=C(c1c(F)cccc1F)N1CCCCCC1 | 0 | 0 | 0 | 0
Cc1nc2ccccc2n1CCC(N)=O | 0 | 0 | 0 | 0
Cc1cccc(C(=O)NCC(=O)O)c1 | 0 | 0 | 0 | 0
CNc1ncc(C(F)(F)F)cc1Cl | 0 | 0 | 0 | 0
Fc1ccccc1CNC1CCOCC1 | 0 | 0 | 0 | 0
CNC(C)c1sc(C)nc1C (centres undefined) | 0 | 0 | 0 | 0
CC(=O)Nc1ccc(C)c2c1CCCN2 | 0 | 0 | 0 | 0
Cc1nn(Cc2c(C)noc2C)c(=O)s1 | 0 | 0 | 0 | 0
c1nc(N2CCC2)c2[nH]cnc2n1 | 0 | 0 | 0 | 0
Cc1csc(CNC(=O)C2CCC2)n1 | 0 | 0 | 0 | 0
CC1CCCC1NCCO (centres undefined) | 0 | 0 | 0 | 0
COCC(=O)NCc1nc2ccccc2[nH]1 | 0 | 0 | 0 | 0
Cl.Cl.c1cn(CC2CCCCN2)nn1 (centres undefined) | 0 | 0 | 0 | 0
Cn1nccc1C(=O)NCc1cccs1 | 0 | 0 | 0 | 0
Cc1cc(N(C)C2CC(O)C2)nc(C)n1 (centres undefined) | 0 | 0 | 0 | 0
Cn1nc(C(N)=O)c2ccccc21 | 0 | 0 | 0 | 0
CNC(=O)CNc1ncnc2sccc12 | 0 | 0 | 0 | 0
CC(C)n1cc(C(=O)O)nn1 | 0 | 0 | 0 | 0
COc1ccc(CN)cc1OC | 0 | 0 | 0 | 0
